We go through one substance from article PMC11797554, “Chemical genetics reveals cross-regulation of plant developmental signaling by the immune peptide-receptor pathway” (Science Advances, 2024).

The chains behind the UniProt entries cited, without tags or fusion partners.
UniProt Q39026: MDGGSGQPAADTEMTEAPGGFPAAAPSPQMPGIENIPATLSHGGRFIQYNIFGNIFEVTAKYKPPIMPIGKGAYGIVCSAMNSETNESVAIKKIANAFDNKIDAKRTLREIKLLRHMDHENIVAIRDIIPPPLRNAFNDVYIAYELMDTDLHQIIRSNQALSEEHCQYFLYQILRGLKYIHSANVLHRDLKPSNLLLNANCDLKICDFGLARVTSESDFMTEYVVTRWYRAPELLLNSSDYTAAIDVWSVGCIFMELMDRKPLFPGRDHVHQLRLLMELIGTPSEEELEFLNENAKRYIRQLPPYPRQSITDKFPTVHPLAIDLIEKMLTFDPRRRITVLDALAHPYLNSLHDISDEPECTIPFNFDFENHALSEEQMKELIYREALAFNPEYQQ

In this test the target is T1, SCRM-nYFP (Arabidopsis) (UniProt Q9LSE2).
T1 sequence: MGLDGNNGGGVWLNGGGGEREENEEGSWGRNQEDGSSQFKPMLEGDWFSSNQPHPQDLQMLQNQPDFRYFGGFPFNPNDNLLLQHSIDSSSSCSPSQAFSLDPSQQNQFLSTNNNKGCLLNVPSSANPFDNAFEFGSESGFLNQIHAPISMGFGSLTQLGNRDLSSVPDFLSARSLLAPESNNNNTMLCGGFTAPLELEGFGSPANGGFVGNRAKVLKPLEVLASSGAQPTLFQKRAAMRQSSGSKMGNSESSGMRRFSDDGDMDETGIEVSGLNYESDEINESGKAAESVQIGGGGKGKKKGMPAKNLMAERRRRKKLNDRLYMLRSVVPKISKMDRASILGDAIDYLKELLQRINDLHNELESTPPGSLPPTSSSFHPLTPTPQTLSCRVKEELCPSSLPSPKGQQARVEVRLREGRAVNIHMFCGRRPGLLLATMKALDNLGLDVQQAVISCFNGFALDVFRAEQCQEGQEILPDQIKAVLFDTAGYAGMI
The test is described as follows: split reporter; ratiometric BiFC (2in1 system, pBiFCt-2in1-CC) in N. benthamiana leaf epidermis; MPK6-cYFP and SCRM-nYFP with 35S::RFP on one plasmid; YFP/RFP ratio in nuclei; mock or 100 μM kC9, 2 days.

No constants are given. Whether binding was seen depends on the method and setting. In cells and extracts the contact can be indirect. Some entries that bind do so weakly or less than the wild type. Where a sequence is shown, tags or fusion partners need not be part of it.

As for “MPK6-cYFP (from UniProt Q39026 1-395) (enzyme)”, the binding result is given as “binds”.
